According to PubChem BioAssay AID493014 (National Center for Advancing Translational Sciences (NCATS), 2011):
The list shows a part of the results. The main result of the screen is listed elsewhere. These columns were measured beside it and carry no call. Most of these compounds were active or inconclusive in the main read-out, so they are no random draw. Potencies come from curve fits of mixed quality, noted in brackets.

Assay: qHTS Assay to Find Inhibitors of Chronic Active B-Cell Receptor Signaling
Conditions: ABC-DLBCL IkBa-CBG/CBR reporter, luminescence ratio (green luciferase fused to IkBa over red control in TMD8 lymphoma cells), 4 h
How it was run: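 TMD8 ABC-DLBCL cells carrying doxycycline-inducible green luciferase fused to IkappaBalpha plus unfused red luciferase were exposed to compounds (up to 46 uM) for 4 hrs at 37C. Activity came from the overlap-corrected green/red luminescence ratio.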

[1] = measured here: CBR red luminescence, cell number

| Structure (SMILES) | AC50 [1] | AC50 (measured here: IkBa-CBG green luminescence) |
| --- | --- | --- |
| COc1ccc(N2CCN(C(=O)CSc3ccc(C)cc3)CC2)cc1 | 10 µM [rising, partial curve, poor fit] |  |
| COc1ccccc1-n1c(SCc2cc(=O)oc3cc(O)ccc23)nc2ccccc2c1=O | 4.11 µM [rising, partial curve, poor fit] |  |
| N#Cc1c(N2CCOCC2)nc(N)c2c(N)nc3c(c12)CC(CCl)O3 (stereo unspecified) | 0.562 µM [falling, full curve, poor fit] |  |
| O=C(NC(=S)NCc1ccco1)c1cccc(Cl)c1 | 20 µM [rising, partial curve, poor fit] |  |
| CCc1ccc(-c2cc(C(F)(F)F)n3nc(C(=O)Nc4c(C)nn(Cc5ccccc5Cl)c4C)cc3n2)s1 | 0.00461 µM [rising, full curve, poor fit] |  |
| CC1(C)N=C(N)N=C(N)N1c1cccc(CN)c1 | 17.8 µM [rising, single point] |  |
| CCCSc1nnc2c(n1)OC(c1ccc(OCC(=O)O)cc1)Nc1ccccc1-2 (stereo unspecified) | 10 µM [falling, partial curve] |  |
| COc1ccccc1CNc1ncc(-c2ccccc2)n1C | 10 µM [falling, partial curve, poor fit] |  |
| CCN1CCN(Cc2ccc(OCc3ccccc3)cc2)CC1 | 3.66 µM [rising, partial curve, poor fit] |  |
| C/C(=N\NC(=O)CNC(=O)C(c1ccccc1)c1ccccc1)c1ccc(C(C)(C)C)cc1 | 29.1 µM [rising, partial curve, poor fit] |  |
| CCOc1ccc(NCc2nnc(SCc3ccc(Cl)cc3)n2-c2ccccc2)cc1 | 29.1 µM [falling, single point] |  |
| CC(C)NC(=S)N1CCn2c(nc3ccccc32)C1 | 18.4 µM [rising, partial curve, poor fit] |  |
| O=C(CN1C(=O)NC2(CCCC2)C1=O)OCc1ccccc1 | 2.59 µM [rising, full curve] |  |
| CCCCNC(=O)Oc1c(Br)cc2sc(=O)oc2c1Br | 10 µM [falling, partial curve, poor fit] |  |
| COc1cc(Cc2nccc3cc(OC)c(OC)cc23)c(NC(C)=O)cc1OC | 15.8 µM [rising, partial curve, poor fit] | 12.6 µM [falling, partial curve, poor fit] |
| O=C(O)C(CO)N=Cc1c(O)c2ccccc2oc1=O (stereo unspecified) | 3.98 µM [falling, partial curve] |  |
| CCCNC(=O)C1CCN(Cc2cc3ccccc3n2Cc2ccccc2)CC1 | 35.5 µM [falling, partial curve, poor fit] |  |
| CN(C)C=NC(=O)c1cc(C(=O)c2ccccc2)c[nH]1 | 12.6 µM [falling, partial curve, poor fit] |  |
| COc1ccc(NC(=O)/C(=C\c2cc(OC)c(OC)cc2[N+](=O)[O-])NC(=O)c2ccccc2)cc1 | 35.5 µM [rising, partial curve, poor fit] |  |
| O=C1c2nc3ccccn3c2C(=O)N1Cc1ccccc1 | 3.16 µM [falling, full curve] |  |

| Structure (SMILES) | AC50 [1] | AC50 (measured here: IkBa-CBG green luminescence) |
| --- | --- | --- |
| CC(C)c1ccc(-c2nnc(N)s2)cc1 | 16.4 µM [rising, partial curve, poor fit] |  |
| Nc1nonc1C(=O)NCCNCc1c(OCc2ccccc2F)ccc2ccccc12 | 29.1 µM [falling, single point] |  |
| COc1ccc(C2CC(c3ccccc3)=NN2C(=O)c2ccc(F)cc2)cc1 (stereo unspecified) | 2.82 µM [rising, full curve, poor fit] |  |
| CCCOc1ccc(N2CC(C(=O)Nc3ccccc3OC)CC2=O)cc1 (stereo unspecified) | 9.2 µM [rising, partial curve, poor fit] |  |
| O=C(NCc1ccccn1)c1cccc(NS(=O)(=O)c2ccc(Br)cc2)c1 | 3.66 µM [rising, full curve] |  |
| CC(=O)NCCC(=O)Nc1cc(S(=O)(=O)N2CCCCC2)ccc1Oc1ccccc1 | 35.5 µM [rising, partial curve, poor fit] |  |
| N/C(=N\OC(=O)c1cccc2ccccc12)c1cccc([N+](=O)[O-])c1 | 11.2 µM [rising, partial curve, poor fit] |  |
| CN(CC(=O)Nc1cccc(F)c1)C(=O)c1ccc(-c2cccc(C(F)(F)F)c2)o1 | 29.1 µM [falling, single point] |  |
| CC[n+]1c(C)sc2sc3ccccc3c21 | 1 µM [falling, full curve, poor fit] |  |
| CN1CCN(C(=O)CCCN2C(=O)/C(=C/c3cccc(Br)c3)SC2=S)CC1 | 6.31 µM [falling, partial curve] |  |
| c1coc(CNCCCN2CCOCC2)c1 | 2.59 µM [rising, full curve, poor fit] |  |
| CC(Nc1nc(N2CCN(CCO)CC2)nc2ccccc12)c1ccccc1 (stereo unspecified) | 12.6 µM [rising, single point] |  |
| O=Nc1c(O)n(Cc2ccc(Cl)cc2)c2ccccc12 | 35.5 µM [falling, single point] |  |
| O=C(c1cc(-c2ccc(Br)cc2)on1)N1CCOCC1 | 6.31 µM [falling, full curve] |  |
| Cc1nc2nc(-c3cccnc3)[nH]n2c(=O)c1Cc1ccccc1 | 1.64 µM [falling, full curve] |  |
| Cc1ccc2cc(CCNC(=O)C(C)C)c(=O)[nH]c2c1 | 6.51 µM [rising, single point] |  |
| COc1cccc(N2CCN(C(=O)c3ccc4nc(N5CCCCC5)sc4c3)CC2)c1 | 11.6 µM [falling, partial curve, poor fit] |  |
| CCOc1ncccc1C(=O)Nc1cc(S(=O)(=O)N2CCCCC2)ccc1C | 3.66 µM [falling, partial curve, poor fit] |  |
| COc1ccc(C2C(C(=O)OCC(=O)Nc3ccc(C)cc3)CCC(=O)N2c2ccc(OC)cc2)cc1 (stereo unspecified) | 2.06 µM [rising, full curve, poor fit] |  |
| O=C1c2ccccc2-c2onc3ccc(NCc4ccco4)c1c23 | 14.1 µM [falling, partial curve] |  |

Three successive compounds out of the list so far:

| Structure (SMILES) | AC50 [1] | AC50 (measured here: IkBa-CBG green luminescence) |
| --- | --- | --- |
| CC(Nc1nc(N2CCN(CCO)CC2)nc2ccccc12)c1ccccc1 (stereo unspecified) | 12.6 µM [rising, single point] |  |
| O=Nc1c(O)n(Cc2ccc(Cl)cc2)c2ccccc12 | 35.5 µM [falling, single point] |  |
| O=C(c1cc(-c2ccc(Br)cc2)on1)N1CCOCC1 | 6.31 µM [falling, full curve] |  |
